# This is one part of the list. For some of these results: Construct or isoform of the protein are uncertain.
# Sequences of proteins named here, by UniProt entry; tags and fusion partners are left off. A change or cut given only in a name is not applied to a line headed by its entry.
# UniProt Q8N6K0: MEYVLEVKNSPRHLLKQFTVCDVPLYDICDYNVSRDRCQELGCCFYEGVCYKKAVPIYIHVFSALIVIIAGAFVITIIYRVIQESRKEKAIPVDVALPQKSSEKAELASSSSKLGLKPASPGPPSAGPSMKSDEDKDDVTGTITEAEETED
# Key:
# Assay in all cases: protein microarray (ProtoArray v5.0), streptavidin-Alexa Fluor 647
# Details in all cases: 3'-biotin; 20 mM Tris (pH 7.5), 5 mM MgCl2, 100 mM KCl, 0.1% Tween-20, A/T-rich and random oligonucleotide blockers; temperature not stated; high values mean tight binding
# [1] = system: C11orf70 (human)
# [2] = system: C11orf71 (human)
# [3] = system: C11orf74 (human)
# [4] = system: C11orf79 (human)
# [5] = system: C12orf10 (human)
# [6] = system: C12orf39 (human)
# [7] = system: C12orf41 (human)
# [8] = system: C12orf48 (human)
# [9] = system: C12orf5 (human)
# [10] = target: C13orf16 (UniProt Q8N6K0)
sequence,measurement,setting,value
GGGAGGCTGAGGCAGG [G4-1 biotinylated (PQS2)],binding signal,[1],-0.288 z-score
same,binding signal,[2],-0.241 z-score
same,binding signal,[3],-0.345 z-score
same,binding signal,[4],-0.331 z-score
same,binding signal,[5],-0.334 z-score
same,binding signal,[6],-0.285 z-score
same,binding signal,[7],-0.358 z-score
same,binding signal,[8],-0.359 z-score
same,binding signal,[9],-0.305 z-score
same,binding signal,[10],-0.288 z-score

# Nothing new here: an excerpt of the list.
sequence,measurement,setting,value
GGGAGGCTGAGGCAGG [G4-1 biotinylated (PQS2)],binding signal,[7],-0.358 z-score
same,binding signal,[8],-0.359 z-score

# — article PMC5996148
